± gives the standard deviation of the averaged measurements. Only a part is listed here, and it is no random draw.

What all share (experiment): NP40-soluble protein abundance relative to vehicle (solubility fold change) (ratio); higher = more soluble protein in presence of ATP
Assay [1] deals with T1, E9PS17 and related entries (UniProt Q96KG9).
T1 sequence (whole entry): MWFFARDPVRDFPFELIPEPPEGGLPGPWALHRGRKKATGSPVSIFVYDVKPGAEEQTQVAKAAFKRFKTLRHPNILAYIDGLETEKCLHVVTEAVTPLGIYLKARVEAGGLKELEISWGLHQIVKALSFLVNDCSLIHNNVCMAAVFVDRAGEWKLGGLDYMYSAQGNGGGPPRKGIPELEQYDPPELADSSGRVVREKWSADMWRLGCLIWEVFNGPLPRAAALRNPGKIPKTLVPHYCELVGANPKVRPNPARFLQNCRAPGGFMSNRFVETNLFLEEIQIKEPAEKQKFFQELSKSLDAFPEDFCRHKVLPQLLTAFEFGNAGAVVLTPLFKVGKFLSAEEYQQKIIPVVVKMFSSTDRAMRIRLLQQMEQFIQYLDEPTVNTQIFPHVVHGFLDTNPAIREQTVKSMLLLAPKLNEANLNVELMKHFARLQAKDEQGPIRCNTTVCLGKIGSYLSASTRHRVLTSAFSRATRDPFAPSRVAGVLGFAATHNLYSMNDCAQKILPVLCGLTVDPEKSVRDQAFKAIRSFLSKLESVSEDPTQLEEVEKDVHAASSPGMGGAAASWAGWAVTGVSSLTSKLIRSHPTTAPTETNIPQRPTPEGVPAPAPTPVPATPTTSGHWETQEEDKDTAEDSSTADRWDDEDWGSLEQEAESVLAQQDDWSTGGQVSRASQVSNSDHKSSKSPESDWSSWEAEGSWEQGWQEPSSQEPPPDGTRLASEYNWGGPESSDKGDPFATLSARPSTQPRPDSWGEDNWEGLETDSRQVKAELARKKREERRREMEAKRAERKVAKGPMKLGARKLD
Put shortly: (§1)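 Each value is a fold change relative to the detergent-processed vehicle, calculated per replicate from vsn-normalised intensities. Jurkat crude lysate received eight concentrations (0.1 to 10 mM) for 10 min at room temperature and 3 min at 37 °C, then was solubilised in 0.8% NP40 with benzonase (60 min, 4 °C). The ultracentrifuged supernatant was TMT-labelled and run by LC-MS/MS in three independent experiments.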

Assay [2] deals with T2, F5H2B9 and related entries (UniProt Q9BZF9).
T2 sequence (whole entry): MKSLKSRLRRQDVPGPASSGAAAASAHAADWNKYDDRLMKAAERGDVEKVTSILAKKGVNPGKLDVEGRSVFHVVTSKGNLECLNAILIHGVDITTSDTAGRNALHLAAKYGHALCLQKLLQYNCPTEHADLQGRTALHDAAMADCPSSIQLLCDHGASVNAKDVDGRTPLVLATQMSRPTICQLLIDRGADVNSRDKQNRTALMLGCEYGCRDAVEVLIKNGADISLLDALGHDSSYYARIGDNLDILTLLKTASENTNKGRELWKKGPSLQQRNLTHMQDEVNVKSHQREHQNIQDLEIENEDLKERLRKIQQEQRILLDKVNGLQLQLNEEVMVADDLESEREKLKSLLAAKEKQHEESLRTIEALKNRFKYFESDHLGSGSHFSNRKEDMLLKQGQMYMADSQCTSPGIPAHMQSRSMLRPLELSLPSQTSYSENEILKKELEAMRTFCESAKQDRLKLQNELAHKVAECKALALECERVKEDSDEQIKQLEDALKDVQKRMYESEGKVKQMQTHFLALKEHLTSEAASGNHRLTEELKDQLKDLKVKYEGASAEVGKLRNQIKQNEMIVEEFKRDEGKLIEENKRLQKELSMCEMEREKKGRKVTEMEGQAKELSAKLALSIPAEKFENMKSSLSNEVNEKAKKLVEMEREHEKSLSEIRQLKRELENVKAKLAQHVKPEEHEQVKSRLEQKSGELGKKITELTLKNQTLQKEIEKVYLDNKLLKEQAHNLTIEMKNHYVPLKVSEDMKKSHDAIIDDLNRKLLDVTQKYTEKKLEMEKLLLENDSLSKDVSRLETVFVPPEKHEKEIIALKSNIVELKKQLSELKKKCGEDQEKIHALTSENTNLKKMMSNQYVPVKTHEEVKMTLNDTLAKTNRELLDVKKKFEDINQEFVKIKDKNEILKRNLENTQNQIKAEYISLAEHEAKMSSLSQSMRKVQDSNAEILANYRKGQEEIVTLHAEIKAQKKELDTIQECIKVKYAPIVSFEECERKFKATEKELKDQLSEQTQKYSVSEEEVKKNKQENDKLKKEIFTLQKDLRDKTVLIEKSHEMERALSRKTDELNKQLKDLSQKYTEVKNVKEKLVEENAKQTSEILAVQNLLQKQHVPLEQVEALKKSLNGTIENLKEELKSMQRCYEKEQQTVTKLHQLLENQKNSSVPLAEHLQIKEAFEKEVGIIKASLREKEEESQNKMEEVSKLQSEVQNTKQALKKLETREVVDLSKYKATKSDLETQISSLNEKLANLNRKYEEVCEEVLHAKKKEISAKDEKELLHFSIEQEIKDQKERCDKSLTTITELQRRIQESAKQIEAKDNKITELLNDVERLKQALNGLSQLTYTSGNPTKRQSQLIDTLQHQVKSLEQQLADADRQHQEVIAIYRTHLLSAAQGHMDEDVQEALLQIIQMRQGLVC
Put shortly: as §1

Assay [3] deals with T3, F8VX10 and related entries (UniProt Q9H9L4).
T3 sequence (whole entry): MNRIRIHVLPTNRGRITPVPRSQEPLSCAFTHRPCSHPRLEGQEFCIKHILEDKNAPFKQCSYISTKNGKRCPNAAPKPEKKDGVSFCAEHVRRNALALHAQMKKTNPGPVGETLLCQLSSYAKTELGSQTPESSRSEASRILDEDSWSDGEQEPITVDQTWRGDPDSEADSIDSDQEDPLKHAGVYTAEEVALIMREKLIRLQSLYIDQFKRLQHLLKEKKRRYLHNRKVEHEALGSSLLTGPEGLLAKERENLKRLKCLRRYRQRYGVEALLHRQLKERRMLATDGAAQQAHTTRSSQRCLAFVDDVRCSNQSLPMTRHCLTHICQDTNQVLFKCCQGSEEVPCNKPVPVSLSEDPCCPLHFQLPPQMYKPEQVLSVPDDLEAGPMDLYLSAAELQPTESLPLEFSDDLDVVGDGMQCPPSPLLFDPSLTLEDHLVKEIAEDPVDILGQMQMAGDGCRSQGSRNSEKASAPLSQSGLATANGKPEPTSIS
The essentials:
as §1

Assay [4] deals with T4, G3V1M0 and related entries (UniProt Q9Y5A6).
T4 sequence (whole entry): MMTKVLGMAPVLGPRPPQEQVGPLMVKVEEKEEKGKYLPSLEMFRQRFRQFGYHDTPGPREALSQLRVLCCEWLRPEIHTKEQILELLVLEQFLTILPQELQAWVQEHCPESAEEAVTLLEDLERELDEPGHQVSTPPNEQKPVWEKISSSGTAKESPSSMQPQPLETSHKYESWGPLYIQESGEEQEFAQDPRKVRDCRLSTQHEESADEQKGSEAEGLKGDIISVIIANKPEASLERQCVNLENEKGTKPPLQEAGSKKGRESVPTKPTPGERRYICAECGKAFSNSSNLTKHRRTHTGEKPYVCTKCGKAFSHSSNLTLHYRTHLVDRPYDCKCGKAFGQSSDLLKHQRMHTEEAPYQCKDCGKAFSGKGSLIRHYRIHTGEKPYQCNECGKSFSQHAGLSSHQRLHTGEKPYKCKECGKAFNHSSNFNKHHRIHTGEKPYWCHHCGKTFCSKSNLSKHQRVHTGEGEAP
The essentials:
as §1

With `Nc1ncnc2c1ncn2[C@@H]1O[C@H](COP(=O)(O)OP(=O)(O)OP(=O)(O)O)[C@@H](O)[C@H]1O` [adenosine triphosphate], the NP40-soluble protein abundance was found to be 0.97 ± 0.021 in assay [1] (concentration: 8mM); 0.975 ± 0.046 in assay [1] (concentration: 10mM); 1 ± 0.034 in assay [2] (concentration: 1mM); 0.9979 ± 0.0089 in assay [2] (concentration: 2mM); 0.968 ± 0.022 in assay [2] (concentration: 4mM); 1.03 ± 0.02 in assay [2] (concentration: 6mM). The NP40-soluble protein abundance is 0.979 ± 0.045 in assay [2] (concentration: 8mM); 0.992 ± 0.033 in assay [2] (concentration: 10mM); 0.994 ± 0.032 in assay [3] (concentration: 1mM); 1.02 ± 0.043 in assay [3] (concentration: 2mM); 0.991 ± 0.086 in assay [3] (concentration: 4mM); 1.07 ± 0.085 in assay [3] (concentration: 6mM). Further, the NP40-soluble protein abundance was found to be 0.988 ± 0.07 in assay [3] (concentration: 8mM); 1.14 ± 0.074 in assay [3] (concentration: 10mM); 0.985 ± 0.086 in assay [4] (concentration: 1mM); 0.962 ± 0.1 in assay [4] (concentration: 2mM); 0.949 ± 0.12 in assay [4] (concentration: 4mM); 0.975 ± 0.2 in assay [4] (concentration: 6mM). Also, the NP40-soluble protein abundance in assay [4] (concentration: 8mM) is 0.945 ± 0.1; in assay [4] (concentration: 10mM) it was 0.951 ± 0.15.

These data come from the supplement of paper PMC6411743.
